From PubChem BioAssay AID2685 (National Center for Advancing Translational Sciences (NCATS), 2010)
The other results are listed elsewhere or left out. Further columns of the screen follow, without active or inactive calls. Most of these compounds were active or inconclusive in the main read-out, so they are no random draw. The note in brackets gives the kind of curve behind each potency; many fits are weak.

Test: qHTS Assay for Lipid Storage Modulators in Drosophila S3 Cells;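 for cell number change: cells counted by Cell Tracker Red CMTPX staining in the red channel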
Conditions: BODIPY lipid droplet fluorescence, 18-24 h; for cell number change: measured here: cell count max response, cells fed with added oleic acid
Method in brief: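 Drosophila S3 cells loaded with oleic acid (400 uM, as added) and compounds at several concentrations; lipid droplets imaged by 488-nm laser-scanning cytometry, 500–530 nm intensity and object ratio to cell channel. Percent activity normalized to 20 uM Triacsin C.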

[1] = measured here: cell number channel AC50, cells fed with added oleic acid
[2] = measured here: lipid fluorescence (Fed channel) AC50, cells fed with added oleic acid

Row | SMILES | cell number change [%] | AC50 [1] | AC50 [2]
1 | O=C(c1c(F)cccc1F)N1CCN(c2ncccn2)CC1 | 23.6 |  | 
2 | CCOc1ccccc1N/C(=C(/C(Cl)=C(Cl)Cl)[N+](=O)[O-])n1cncn1 | -34.4 | 16.4 µM [falling, single point] | 20.6 µM [falling, single point]
3 | Cc1ccc(Cl)cc1N1CCN(S(=O)(=O)c2ccc3c(c2)oc(=O)n3C)CC1 | 10.1 |  | 4.61 µM [rising, full curve]
4 | O=C(COc1coc(CN2CCN(c3cccc(Cl)c3)CC2)cc1=O)NC1CCCC1 | 50 | 20.6 µM [rising, single point] | 0.164 µM [falling, full curve, poor fit]
5 | Cn1c(-c2ccsc2)c(-c2cccs2)c2cc(-c3ccc4[nH]ccc4c3)ccc21 | -39.6 | 0.0651 µM [falling, full curve, poor fit] | 6.51 µM [falling, partial curve, poor fit]
6 | O=C(O)C1CCCN1S(=O)(=O)c1ccc2[nH]c(=O)c(=O)[nH]c2c1 (stereo not drawn) | 18.3 |  | 16.4 µM [falling, partial curve]
7 | CCN(CC)S(=O)(=O)c1ccc(NC=C(C#N)C#N)cc1 | -29.4 |  | 29.1 µM [falling, single point]
8 | Cc1ccc(Cl)c(OCC(=O)Nc2ccccc2N2CCCCC2)c1 |  |  | 6.51 µM [rising, single point]
9 | CN(C(=O)c1coc(=O)c2ccccc12)c1ccccc1Cl |  | 0.116 µM [rising, single point] | 
10 | CC(C(=O)N1CCN(c2ccccc2F)CC1)c1ccc([N+](=O)[O-])cc1 (stereo not drawn) | -19.7 |  | 3.66 µM [falling, single point]
11 | COc1ccc(CNc2ncc(-c3ccccc3)n2C)c2ccccc12 | -1.05 |  | 
12 | O=C(CSc1nnc(-c2ccccn2)n1Cc1ccccc1)NC1CCCC1 | -24.2 |  | 29.1 µM [falling, single point]
13 | O=C(NC1CCN(Cc2ccccc2)CC1)c1c(F)cccc1F |  | 6.51 µM [rising, single point] | 6.51 µM [rising, single point]
14 | O=C(c1cnn2ccccc12)N1CCN(C2CCCCC2)CC1 | 2.43 | 0.58 µM [falling, single point] | 
15 | COc1ccc(NC(=S)Nc2ccccc2OC)c(OC)c1 | -44.5 | 29.1 µM [falling, single point] | 
16 | COc1ccc(Cc2nnc(NC(=O)c3ccc(OC)c(OC)c3)s2)cc1OC | -44.3 | 16.4 µM [falling, single point] | 23.1 µM [falling, single point]
17 | CCCCn1nc(C(=O)Nc2cc(C(F)(F)F)ccc2N2CCOCC2)ccc1=O | 12.5 | 9.2 µM [rising, single point] | 29.1 µM [falling, single point]
18 | COc1ccc(NC(=O)COc2coc(CN3CCc4ccccc4C3)cc2=O)cc1 | 8.38 |  | 29.1 µM [falling, single point]
19 | CCC1(c2ccccc2)NC(=O)N(CC(=O)Nc2cc(C(F)(F)F)ccc2N2CCCC2)C1=O (stereo not drawn) |  |  | 29.1 µM [rising, single point]
20 | O=C(CCS(=O)(=O)c1ccc(Br)s1)Nc1ccccc1Br | 36.5 |  | 0.00461 µM [falling, full curve, poor fit]

Records 6–8 of the list above:
Row | SMILES | cell number change [%] | AC50 [1] | AC50 [2]
6 | O=C(O)C1CCCN1S(=O)(=O)c1ccc2[nH]c(=O)c(=O)[nH]c2c1 (stereo not drawn) | 18.3 |  | 16.4 µM [falling, partial curve]
7 | CCN(CC)S(=O)(=O)c1ccc(NC=C(C#N)C#N)cc1 | -29.4 |  | 29.1 µM [falling, single point]
8 | Cc1ccc(Cl)c(OCC(=O)Nc2ccccc2N2CCCCC2)c1 |  |  | 6.51 µM [rising, single point]

Going on with the list.

Row | SMILES | cell number change [%] | AC50 [1] | AC50 [2]
21 | O=C(COC(=O)/C=C/c1ccco1)NCc1ccc2c(c1)OCO2 | 17.5 |  | 
22 | CCCCn1c(C(C)NC(=O)CCC)nc2ccccc21 (stereo not drawn) |  |  | 6.51 µM [rising, single point]
23 | CCN(c1ccccc1)S(=O)(=O)c1c[nH]c2ccc([N+](=O)[O-])cc12 |  |  | 7.31 µM [falling, partial curve]
24 | CC(=O)c1ccc(NC(=O)COC(=O)c2ccccc2Nc2ccccc2)cc1 | -18.2 |  | 0.82 µM [rising, full curve, poor fit]
25 | CCOc1ccc(CC(=O)Nc2nccs2)cc1 | 99.4 | 16.4 µM [rising, single point] | 
26 | CCOC(=O)c1ccccc1N/C=C1\CCCCC1=O | -27.2 |  | 2.06 µM [falling, full curve]
27 | Cc1ccc(N2CC(C(N)=O)CC2=O)cc1C (stereo not drawn) | -99.6 | 29.1 µM [falling, partial curve] | 0.116 µM [falling, full curve, poor fit]
28 | CC(=O)Nc1ccc(S(=O)(=O)N2CCN(C(=O)CCC3CCCC3)CC2)cc1 | 26.4 |  | 29.1 µM [rising, single point]
29 | O=C(NC1CCCC1)C(=O)N(Cc1cccnc1)C(C(=O)NC1CCCC1)c1ccco1 (stereo not drawn) | -1.38 |  | 6.51 µM [falling, single point]
30 | COC(=O)c1sc2cnccc2c1N |  | 2.31 µM [rising, partial curve, poor fit] | 
31 | Cc1ccc(C)c(COC(=O)CCN=C2NS(=O)(=O)c3ccccc32)c1 | -23.3 |  | 1.64 µM [falling, partial curve]
32 | Cc1noc(C)c1COc1ccc(C(=O)OC(C)C(=O)Nc2ccc(N3CCOCC3)cc2)cc1 (stereo not drawn) | -7.21 | 0.0731 µM [falling, full curve, poor fit] | 
33 | Cn1c(-c2cc3c(C(F)(F)F)nn(C)c3s2)n[nH]c1=S | 8.33 |  | 18.4 µM [falling, single point]
34 | O=C(Nc1ccc(CSc2ccccc2)cc1)c1ccc(CN2CCOCC2)cc1 | -39.7 | 29.1 µM [falling, single point] | 
35 | CC(=O)N1c2ccc(S(=O)(=O)N3CCC(C(=O)NCc4ccc(C)cc4)CC3)cc2CC1C (stereo not drawn) | 28.9 |  | 6.51 µM [rising, single point]
36 | COc1ccccc1-n1c(SCC(=O)c2ccc(O)cc2O)nc2cc([N+](=O)[O-])ccc21 | 24.2 |  | 9.2 µM [rising, partial curve]
37 | CCN(CC(=O)Nc1cc(S(=O)(=O)N2CCCCC2)ccc1Cl)Cc1ccccc1 | 155 | 18.4 µM [rising, single point] | 
38 | Cc1noc(NC(=O)c2ccccc2)c1C#N |  | 6.51 µM [falling, single point] | 
39 | CCCCC(=O)Nc1sc2c(c1-c1nc3ccccc3s1)CCN(C(C)=O)C2 | -12.6 | 1.3 µM [rising, full curve, poor fit] | 0.82 µM [rising, full curve]
40 | CCOC(=O)CNC(=O)CSc1nc2cccnc2n1C | 3.76 |  | 0.82 µM [falling, single point]

Row | SMILES | cell number change [%] | AC50 [1] | AC50 [2]
41 | Cc1nc(N)sc1-c1nnc(SCC(=O)Nc2nccs2)n1C | -6.93 | 0.058 µM [falling, full curve, poor fit] | 
42 | Cc1cc(C)nc(SC(C)CNS(=O)(=O)c2ccccc2)n1 (stereo not drawn) | -14.5 | 4.11 µM [falling, single point] | 
43 | CCn1c(SCC(=O)Nc2ccc3c(c2)OCCO3)nnc1C1CC1 | 10.3 |  | 8.2 µM [rising, partial curve]
44 | Cc1ccc(NC(=O)CCSc2nnnn2-c2ccc3c(c2)OCO3)cc1C | 83.3 | 1.64 µM [rising, partial curve] | 5.8 µM [rising, partial curve]
45 | Cn1cncc1C(=O)c1ccccc1 | 5.61 |  | 0.291 µM [falling, full curve, poor fit]
46 | Cn1c(CCN2CCOCC2)nc2cc(NC(=O)COc3ccc(Cl)cc3)ccc21 | 7.35 |  | 
47 | COc1ccc(NS(=O)(=O)c2cc(NC(=O)C3CCCO3)ccc2N2CCCC2)cc1 (stereo not drawn) | 53.3 | 4.11 µM [falling, single point] | 5.17 µM [rising, partial curve]
48 | CCOc1ccc(NC(=O)c2cnc3scc(C)n3c2=O)cc1 |  |  | 0.58 µM [rising, single point]
49 | COc1ccc(-n2nc3c(c2NC(=O)c2ccco2)CS(=O)(=O)C3)cc1 | 23.9 |  | 20.6 µM [rising, single point]
50 | CCN(CC)S(=O)(=O)c1ccc(O)c(NC(=O)c2ccc(N3CCOCC3)c([N+](=O)[O-])c2)c1 | 37.1 |  | 
51 | COc1cccc(CN(C)C(=O)c2cccc(S(=O)(=O)NCc3ccccc3)c2)c1OC | 8.84 | 6.51 µM [rising, single point] | 
52 | COc1cc(NC(=O)c2sc3ncn(CC(=O)N4CCCC(C)C4)c(=O)c3c2C)cc(OC)c1OC (stereo not drawn) | -16.2 |  | 6.51 µM [rising, single point]
53 | COC(=O)c1sccc1N/N=C/c1ccc(OC)c(OC)c1OC | 11.1 |  | 0.461 µM [rising, partial curve]
54 | O=C1c2ccccc2S(=O)(=O)N1CC(O)Cn1ccc2ccccc21 (stereo not drawn) | -6.13 | 0.146 µM [falling, full curve, poor fit] | 
55 | O=C(NCc1ccc(OC(F)(F)F)cc1)C1CCC(=O)N(C2CC2)C1 (stereo not drawn) | -11.6 |  | 29.1 µM [falling, single point]
56 | COC(=O)c1cccc(Cn2c(Cl)c(/C=N/Nc3ccccc3C)sc2=O)c1 | 8.93 |  | 6.51 µM [rising, single point]
57 | Cc1cc(OCC(=O)O)c2cccc(C)c2n1 |  | 1.3 µM [falling, full curve, poor fit] | 0.82 µM [falling, full curve]
58 | COC(=O)C1CSc2[nH]c(=O)sc2C1c1ccccc1 (stereo not drawn) | 2.8 |  | 0.103 µM [falling, full curve, poor fit]
59 | COc1ccccc1N1CCN(C(=O)c2cc(C(=O)N3CCN(c4ccccc4OC)CC3)cc([N+](=O)[O-])c2)CC1 | 0.324 |  | 
